For experiment [1], the target named is T1, GADD45G overexpressed from Ad-GADD45G in HRE cells (human) (UniProt O95257).
T1 sequence: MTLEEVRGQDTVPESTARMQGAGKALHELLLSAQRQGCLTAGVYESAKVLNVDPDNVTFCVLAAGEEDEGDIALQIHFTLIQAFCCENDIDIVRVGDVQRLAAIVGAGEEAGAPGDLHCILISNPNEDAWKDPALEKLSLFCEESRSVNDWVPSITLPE
Nature of the experiment: co-IP; lysates of HRE cells co-infected with Ad-GADD45G and Ad-HA-MAGEH1 (MOI 250), with or without 25 ug/ml CsA; IP with anti-GADD45G and blot for HA-MAGEH1, and the reciprocal IP of HA-MAGEH1 with blot for GADD45G; Protein G agarose; control IgG.

The target in experiment [2] is T2, HA-MAGEH1 overexpressed from Ad-HA-MAGEH1 in HRE cells (UniProt Q9H213).
T2 sequence: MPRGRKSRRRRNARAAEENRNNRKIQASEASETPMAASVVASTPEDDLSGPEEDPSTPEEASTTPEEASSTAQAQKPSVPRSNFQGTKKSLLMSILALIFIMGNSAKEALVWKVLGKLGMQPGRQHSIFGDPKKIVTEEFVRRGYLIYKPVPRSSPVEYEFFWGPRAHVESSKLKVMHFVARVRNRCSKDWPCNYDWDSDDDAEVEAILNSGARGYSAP
The description is as above.

These are yes or no findings as the source states them, for the method shown. In cells and extracts the contact can be indirect. Some results given as binding are weak or reduced against the parent protein; the word gives no strength. Sequences can lack the tags named with a protein.

These results are taken from article PMC8598065.

B1: HA-MAGEH1 overexpressed from Ad-HA-MAGEH1 in HRE cells (protein, UniProt Q9H213 1-219)
chain: MPRGRKSRRRRNARAAEENRNNRKIQASEASETPMAASVVASTPEDDLSGPEEDPSTPEEASTTPEEASSTAQAQKPSVPRSNFQGTKKSLLMSILALIFIMGNSAKEALVWKVLGKLGMQPGRQHSIFGDPKKIVTEEFVRRGYLIYKPVPRSSPVEYEFFWGPRAHVESSKLKVMHFVARVRNRCSKDWPCNYDWDSDDDAEVEAILNSGARGYSAP
On to B1, for which the binding entry in experiment [1] was “binds”.

B2: GADD45G overexpressed from Ad-GADD45G in HRE cells (protein, UniProt O95257 1-159)
chain: MTLEEVRGQDTVPESTARMQGAGKALHELLLSAQRQGCLTAGVYESAKVLNVDPDNVTFCVLAAGEEDEGDIALQIHFTLIQAFCCENDIDIVRVGDVQRLAAIVGAGEEAGAPGDLHCILISNPNEDAWKDPALEKLSLFCEESRSVNDWVPSITLPE
For the molecule B2, the binding entry in experiment [2] is “binds”.
